Laboratory results: patent US20120296403A1, “METHODS AND COMPOUNDS FOR MUSCLE GROWTH” (NOVARTIS AG, priority 2010, published 2012)
No constants are given. Whether binding was seen depends on the method and setting. In cells and extracts the contact can be indirect. Some results given as binding are weak or reduced against the parent protein; the word gives no strength.

Chains of the proteins cited; added tags and fusions are not shown.
UniProt P35569: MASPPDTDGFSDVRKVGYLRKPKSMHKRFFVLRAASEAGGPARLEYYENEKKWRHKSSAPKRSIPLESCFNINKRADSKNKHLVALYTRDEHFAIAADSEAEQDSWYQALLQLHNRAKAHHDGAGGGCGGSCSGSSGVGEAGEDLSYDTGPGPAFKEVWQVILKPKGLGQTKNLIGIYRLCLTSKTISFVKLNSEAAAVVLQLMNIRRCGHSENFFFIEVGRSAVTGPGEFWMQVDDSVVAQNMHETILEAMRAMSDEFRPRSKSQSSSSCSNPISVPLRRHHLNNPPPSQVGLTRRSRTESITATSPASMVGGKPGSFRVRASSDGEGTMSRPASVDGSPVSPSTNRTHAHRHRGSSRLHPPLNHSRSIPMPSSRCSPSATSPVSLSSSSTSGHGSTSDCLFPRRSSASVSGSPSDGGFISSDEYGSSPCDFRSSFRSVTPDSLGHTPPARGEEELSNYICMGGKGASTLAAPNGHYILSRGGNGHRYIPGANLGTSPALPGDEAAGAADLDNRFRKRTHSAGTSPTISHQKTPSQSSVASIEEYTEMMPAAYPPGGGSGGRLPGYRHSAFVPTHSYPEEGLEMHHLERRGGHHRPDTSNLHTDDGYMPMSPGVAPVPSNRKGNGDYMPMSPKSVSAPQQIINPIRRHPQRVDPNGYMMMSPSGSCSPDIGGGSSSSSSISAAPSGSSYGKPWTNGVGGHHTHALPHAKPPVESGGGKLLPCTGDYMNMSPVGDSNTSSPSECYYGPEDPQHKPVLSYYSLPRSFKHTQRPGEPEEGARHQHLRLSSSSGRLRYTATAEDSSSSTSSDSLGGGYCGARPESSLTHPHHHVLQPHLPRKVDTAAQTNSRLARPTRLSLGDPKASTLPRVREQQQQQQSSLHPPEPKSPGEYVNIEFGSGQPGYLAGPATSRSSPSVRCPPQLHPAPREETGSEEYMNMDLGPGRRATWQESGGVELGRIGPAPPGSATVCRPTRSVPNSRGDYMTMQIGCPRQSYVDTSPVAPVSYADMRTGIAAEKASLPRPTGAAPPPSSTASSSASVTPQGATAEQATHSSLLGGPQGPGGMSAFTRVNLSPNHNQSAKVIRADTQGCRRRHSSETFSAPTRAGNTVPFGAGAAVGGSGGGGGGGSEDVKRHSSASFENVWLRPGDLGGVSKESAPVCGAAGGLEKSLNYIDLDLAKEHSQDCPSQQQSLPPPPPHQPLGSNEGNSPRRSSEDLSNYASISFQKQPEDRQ

Legend:
[1] = target: IRS1 (insulin receptor substrate 1), endogenous in C2C12 myotubes (mouse) (UniProt P35569); experiment: co-immunoprecipitation with the anti-Fbxo40 antibody from C2C12 myotube lysate, SDS eluate, immunoblot for IRS1
[2] = target: IRS1 (insulin receptor substrate 1), endogenous in C2C12 myotubes (mouse) (UniProt P35569); experiment: co-immunoprecipitation with anti-Fbxo40 antibody from C2C12 myotube lysate, Western blot

binding [1]: binds
binding [2]: binds
B1: Fbxo40, endogenous in C2C12 myotubes (enzyme, mouse, UniProt P62932 1-710, looked up)
chain: MGRARKPPPALHRHCEGCFNRHCHVPVEPSVSCLVISCHLLCGATFHMCKESEHTLLCPLEQVPCLNSEYGCPLSMARHKLAKHLQVCPASVVCCSMEWIRWPNVDSETFLHENIMKETPSEECLDTALALQDQKVLFRSLKMVELFPETRDATEEEPDMNGDTSWEETGGAVGGVDARLAPNSCLPATSRQMMELSQEERDALAKTKEGMDLDKFGKWESMFSKEHAASVLTGSLGKSEDKNGDVAGKEQCSSNVRIGDAEGSAERRGPQESQKSQELPATMEMTGLAPWQDGVLERLKTAVDAKDYNMYLVHNGRMLIHFGQMPACTPKERDFVYGNLEAQEVKTVYTFKIPVSYCGKRARLGDAMLKCRPSEHKAVDTSDLGISVEDLPKSDLIKTTLQCALERELKGHVISESRSIDGLFMDLATQTYNFEPEQFSSETVLADLLGTAQPGGLHVELHSECVTRRHNKSSSAFTFTCNKFFRRDEFPLHFKNVHTDIQSSLDGWFQHRCPLAYLGCTFVQNHFRPPGQKAKVIYSQELKTFAIKPEVAPELSEKWKSDHLSGRDGKSLNSLTSLPLEVLQYIAGFLDSISLSQLSQVSVLMRNICATLLQERGMVLSQWKKKRYSHGGTSWKVHNQIWQFSSLFSKINSWEFNDVTSMSEHLKTCPFNIVERKTDPIRLTSMCQPQEKARESLVSTFRARPRGRHF
